Results: US4097599A, “Triazoles” (Commonwealth Scientific and Industrial Research Organization, priority 1973, dated 1978)
Some entries share one result that the patent states for a list of compounds.

System: oxidative phosphorylation in rat liver mitochondria
Assay: Oxidative phosphorylation in rat liver mitochondria (uncoupling, State 3 respiration)
Assay type: biochemical
Conditions: for Inhibition of State 3 respiration in rat liver mitochondrial preparations / Reversal of inhibition of State 3 respiration on addition of 2:4-dinitrophenol (DNP): pyruvate as substrate; for Reversal of inhibition of respiration by DNP: succinate as substrate
Description: Other biochemical tests carried out with the compounds were the measurement of their effects on the uncoupling of oxidative phosphorylation and the inhibition of energy transfer in the mitochondrial respiration sequences. In the light of a known report on the action of certain acaricides as monoamine oxidase (MAO) inhibitors, the new structures were also examined in this test, and their activity compared to the reported MAO inhibition shown by the potent acaricide N-(2,4-dimethylphenyl)-N'-methyl formamidine (BTS 27271).
Rat liver mitochondria were prepared by the method described by Hogeboon^6 in a medium containing 0.25 M sucrose; 10 mM tris-HCl (pH 7.40); 0.5 mM EDTA and finally suspended in the same medium plus bovine-serum albumin (2 mg/ml). Oxidative phosphorylation was measured polarographically at 30°, as described by Estabrook, R. W. et al.^7. The incubation medium contained 0.25 M sucrose; 10 mM tris-HCl (pH 7.4); 5 mM K2 HPO4 (pH 7.4); 0.5 mM EDTA and bovine-serum albumin (2 mg/ml). DNP was added and control tests were carried out using n-octyl guanidine ^8 and either pyruvate or succinate as substrates.
State 3 and state 4 respiration rates were determined by the method of Chance, B. et al.^9. Percentage uncoupling in the presence of antimetabolities was calculated from the equation [formula] Percentage inhibition of coupled respiration was calculated from the equation [formula] Relative uncoupling and n-octylguanidine like effects are compared as the concentrations required to give 50% effects (I50).

FC(F)(F)c1nncn1-c1ccccc1 [Example 1, 4-Phenyl-3-trifluoromethyl-1,2,4-triazole]
Inhibition of State 3 respiration in rat liver mitochondrial preparations: inhibition of State 3 respiration | Reversal of inhibition of State 3 respiration on addition of 2:4-dinitrophenol (DNP): only partially reversed | Reversal of inhibition of respiration by DNP: fully reversed

FC(F)(F)c1nncn1-c1ccc(Cl)cc1 [Example 3, 4-(4-chlorophenyl)-3-trifluoromethyl-1,2,4-triazole]
Inhibition of State 3 respiration in rat liver mitochondrial preparations: inhibition of State 3 respiration | Reversal of inhibition of State 3 respiration on addition of 2:4-dinitrophenol (DNP): only partially reversed | Reversal of inhibition of respiration by DNP: fully reversed

Cc1ccccc1-n1cnnc1C(F)(F)F [Example 4, 4-(2-methylphenyl)-3-trifluoromethyl-1,2,4-triazole]
Inhibition of State 3 respiration in rat liver mitochondrial preparations: inhibition of State 3 respiration | Reversal of inhibition of State 3 respiration on addition of 2:4-dinitrophenol (DNP): only partially reversed | Reversal of inhibition of respiration by DNP: fully reversed

CC(C)(C)c1ccccc1-n1cnnc1C(F)(F)F [Example 5, 4-(2-t-butylphenyl)-3-trifluoromethyl-1,2,4-triazole]
Inhibition of State 3 respiration in rat liver mitochondrial preparations: inhibition of State 3 respiration | Reversal of inhibition of State 3 respiration on addition of 2:4-dinitrophenol (DNP): only partially reversed | Reversal of inhibition of respiration by DNP: fully reversed

COc1ccccc1-n1cnnc1C(F)(F)F [Example 6, 4-(2-methoxyphenyl)-3-trifluoromethyl-1,2,4-triazole]
Inhibition of State 3 respiration in rat liver mitochondrial preparations: inhibition of State 3 respiration | Reversal of inhibition of State 3 respiration on addition of 2:4-dinitrophenol (DNP): only partially reversed | Reversal of inhibition of respiration by DNP: fully reversed
